Laboratory results taken from patent US20210315983A1.
These are yes or no findings as the source states them, for the method shown. Binding seen in cells or lysates may run through a third protein. Some binding calls cover weakened binding; strength is not graded here. Blank lines part the entries; values can stand above or below the binder they belong to.

By UniProt entry, the sequences of proteins in these tests, tags left out. Residues count along the entry.
UniProt P01899, residues 25-309: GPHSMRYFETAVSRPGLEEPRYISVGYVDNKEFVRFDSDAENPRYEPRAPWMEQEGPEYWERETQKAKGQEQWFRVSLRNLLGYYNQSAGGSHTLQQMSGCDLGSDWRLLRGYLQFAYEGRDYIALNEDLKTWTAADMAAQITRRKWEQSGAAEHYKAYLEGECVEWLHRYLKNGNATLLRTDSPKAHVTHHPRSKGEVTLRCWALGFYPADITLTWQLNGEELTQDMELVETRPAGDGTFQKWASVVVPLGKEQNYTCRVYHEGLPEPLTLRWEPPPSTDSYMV
UniProt P01901, residues 22-305: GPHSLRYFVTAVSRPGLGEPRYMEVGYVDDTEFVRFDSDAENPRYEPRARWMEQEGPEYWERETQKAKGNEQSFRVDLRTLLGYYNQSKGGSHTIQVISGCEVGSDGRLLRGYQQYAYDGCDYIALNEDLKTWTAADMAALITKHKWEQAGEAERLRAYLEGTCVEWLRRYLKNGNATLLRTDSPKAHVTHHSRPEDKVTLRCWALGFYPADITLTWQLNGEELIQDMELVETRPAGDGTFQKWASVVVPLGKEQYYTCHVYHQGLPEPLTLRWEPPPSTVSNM

Assays:
[1] = target: H2-Db (mouse) (UniProt P01899); assay: HLA peptidomics: immunoaffinity purification of MHC from B2905 clone 2 cells, LC-MS/MS of eluted peptides
[2] = target: H2-Kb (mouse) (UniProt P01901); assay: HLA peptidomics: immunoaffinity purification of MHC from B16F10.9 clone 1 cells, LC-MS/MS of eluted peptides
[3] = target: H2-Kb (mouse) (UniProt P01901); assay: HLA peptidomics: immunoaffinity purification of MHC from B16F10.9 parental, UVB irradiated and clone 1 cells, LC-MS/MS of eluted peptides
[4] = target: H2-Kb (mouse) (UniProt P01901); assay: HLA peptidomics: immunoaffinity purification of MHC from B2905 clone 2 cells, LC-MS/MS of eluted peptides

Binder: ANFIFRQL [ANFIFRQL (SEQ ID NO: 6), potential neo-antigen encoded by PaskS>N]
- binding [3]: binds

Binder: SAYEKLYSL [… (SEQ ID NO: 5), neo-antigen encoded by RPTORH>Y]
- binding [4]: binds

Next, values leading:

- binding [1]: binds
Binder: ASLTHVDSL [… (SEQ ID NO: 4), neo-antigen encoded by IFI44L>S]

- binding [2]: binds
Binder: TIYVFPERL [… (SEQ ID NO: 7), potential neo-antigen encoded by MlklS>F]
